For 4 molecules, binding results are on record in PMC3540084.

Amino acid sequences for entries named in this document (tags omitted). A change or cut given only in a name is not applied to a line headed by its entry.
UniProt Q8C3Q9: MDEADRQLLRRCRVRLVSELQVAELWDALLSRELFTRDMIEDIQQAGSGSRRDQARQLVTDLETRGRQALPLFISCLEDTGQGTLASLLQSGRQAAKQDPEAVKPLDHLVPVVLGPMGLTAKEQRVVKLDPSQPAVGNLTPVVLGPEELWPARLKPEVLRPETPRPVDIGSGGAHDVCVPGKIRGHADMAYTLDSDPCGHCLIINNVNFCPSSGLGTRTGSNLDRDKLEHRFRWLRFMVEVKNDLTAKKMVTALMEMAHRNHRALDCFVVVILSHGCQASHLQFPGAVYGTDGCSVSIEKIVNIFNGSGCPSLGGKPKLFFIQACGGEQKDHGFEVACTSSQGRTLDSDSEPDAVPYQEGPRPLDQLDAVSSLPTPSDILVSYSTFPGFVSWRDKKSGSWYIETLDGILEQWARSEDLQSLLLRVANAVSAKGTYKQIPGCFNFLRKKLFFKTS
UniProt P10749: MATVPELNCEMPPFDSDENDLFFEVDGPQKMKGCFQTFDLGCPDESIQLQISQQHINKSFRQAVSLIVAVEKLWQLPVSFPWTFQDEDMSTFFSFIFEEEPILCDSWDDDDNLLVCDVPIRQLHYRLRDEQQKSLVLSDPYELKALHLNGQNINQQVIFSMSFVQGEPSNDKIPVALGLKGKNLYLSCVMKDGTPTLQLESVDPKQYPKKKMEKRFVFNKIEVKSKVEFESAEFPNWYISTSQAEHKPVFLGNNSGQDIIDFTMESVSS

Results are given in words; binding and its absence hold for the method and conditions named. Binding seen in cells or lysates may run through a third protein. For part of these data: Binding calls can cover weak binding; strength is not graded here. For part of these data: Tags and fused reporters may be left off the sequences shown.

What all share (experiment): co-IP; cytosols of cultured HL-1 cardiomyocytes after 6 hr hypoxia; polyclonal Abs to IL-1Ra, caspases or control IL-1beta coupled to Sepharose beads plus protein A/G; precipitates washed in PBS; Western blot with monoclonal Abs; IP compared to unbound (free) supernatant proteins
For orientation: A western blot detects proteins with antibodies after separation by electrophoresis.

Test [1] has as its target T1, caspase-3 (mouse) (mouse (endogenous in HL-1)) (UniProt P70677).
T1 sequence: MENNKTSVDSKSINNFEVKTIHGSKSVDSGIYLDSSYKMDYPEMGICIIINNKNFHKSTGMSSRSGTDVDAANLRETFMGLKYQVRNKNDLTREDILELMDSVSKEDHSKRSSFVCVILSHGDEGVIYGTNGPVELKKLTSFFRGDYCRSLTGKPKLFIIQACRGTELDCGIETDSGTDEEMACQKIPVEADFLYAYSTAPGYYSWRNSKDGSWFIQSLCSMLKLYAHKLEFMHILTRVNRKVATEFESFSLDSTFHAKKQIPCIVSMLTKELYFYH

For test [2], the target named is T2, caspase-7 (mouse) (mouse (endogenous in HL-1)) (UniProt P97864).
T2 sequence: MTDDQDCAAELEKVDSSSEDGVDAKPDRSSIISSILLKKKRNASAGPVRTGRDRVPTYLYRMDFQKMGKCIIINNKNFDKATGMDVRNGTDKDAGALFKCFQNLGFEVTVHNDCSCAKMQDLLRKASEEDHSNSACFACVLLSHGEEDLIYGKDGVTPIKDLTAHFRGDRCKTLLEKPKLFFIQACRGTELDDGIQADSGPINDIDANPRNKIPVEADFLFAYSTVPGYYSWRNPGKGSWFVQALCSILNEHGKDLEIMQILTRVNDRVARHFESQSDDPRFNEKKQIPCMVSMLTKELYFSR

Test [3] deals with T3, caspase-6 (mouse) (mouse (endogenous in HL-1)) (UniProt O08738).
T3 sequence: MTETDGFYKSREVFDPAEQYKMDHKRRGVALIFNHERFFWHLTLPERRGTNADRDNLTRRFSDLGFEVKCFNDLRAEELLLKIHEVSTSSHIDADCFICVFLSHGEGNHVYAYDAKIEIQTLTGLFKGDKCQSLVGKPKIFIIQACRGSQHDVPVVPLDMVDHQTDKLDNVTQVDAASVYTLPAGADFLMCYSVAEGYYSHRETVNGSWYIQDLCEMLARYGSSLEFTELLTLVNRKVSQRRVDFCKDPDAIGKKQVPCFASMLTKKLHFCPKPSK

The target in test [4] is caspase-9 (mouse) (mouse (endogenous in HL-1)) (UniProt Q8C3Q9).
Test [5] deals with intracellular IL-1Ra isoform (mouse interleukin-1 receptor antagonist) (mouse (endogenous in HL-1)).

On to IL-1beta (mouse) (from UniProt P10749), for which the binding result in test [1], in test [2], in test [3] and in test [4] was “no binding” throughout.
Consider “intracellular IL-1Ra isoform (mouse interleukin-1 receptor antagonist)”, for which the binding result is “binds” in test [1], “binds weakly” in test [2] and “binds weakly” in test [3].

B1: IL-1R1 ancillary protein (mouse) (receptor, UniProt Q61730 21-570)
chain: SERCDDWGLDTMRQIQVFEDEPARIKCPLFEHFLKYNYSTAHSSGLTLIWYWTRQDRDLEEPINFRLPENRISKEKDVLWFRPTLLNDTGNYTCMLRNTTYCSKVAFPLEVVQKDSCFNSAMRFPVHKMYIEHGIHKITCPNVDGYFPSSVKPSVTWYKGCTEIVDFHNVLPEGMNLSFFIPLVSNNGNYTCVVTYPENGRLFHLTRTVTVKVVGSPKDALPPQIYSPNDRVVYEKEPGEELVIPCKVYFSFIMDSHNEVWWTIDGKKPDDVTVDITINESVSYSSTEDETRTQILSIKKVTPEDLRRNYVCHARNTKGEAEQAAKVKQKVIPPRYTVELACGFGATVFLVVVLIVVYHVYWLEMVLFYRAHFGTDETILDGKEYDIYVSYARNVEEEEFVLLTLRGVLENEFGYKLCIFDRDSLPGGIVTDETLSFIQKSRRLLVVLSPNYVLQGTQALLELKAGLENMASRGNINVILVQYKAVKDMKVKELKRAKTVLTVIKWKGEKSKYPQGRFWKQLQVAMPVKKSPRWSSNDKQGLSYSSLKNV
For the molecule B1, in test [5], the binding result was “no binding”.

B2: secreted IL-1Ra isoform (mouse interleukin-1 receptor antagonist) (protein, UniProt P25085 27-178)
chain: RPSGKRPCKMQAFRIWDTNQKTFYLRNNQLIAGYLQGPNIKLEEKIDMVPIDLHSVFLGIHGGKLCLSCAKSGDDIKLQLEEVNITDLSKNKEEDKRFTFIRSEKGPTTSFESAACPGWFLCTTLEADRPVSLTNTPEEPLIVTKFYFQEDQ
For B2, the binding entry in test [4] was “binds”.
